The list shows a part of the results. These are further read-outs of the screen, such as a control signal, another cell line or another target. No call is given for them. Compounds called inactive in the main read-out are mostly missing here. The note in brackets gives the kind of curve behind each potency; many fits are weak.

One may read the AC50 as the concentration giving half of the maximal activity seen.

A short description of the test: IkB Signaling. The note with it: ABC-DLBCL IkBa-CBG/CBR dual luciferase ratio (green luciferase fused to IkBa over red control in OCI-Ly3 lymphoma cells), 4 h. In outline: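 Luminescence ratio of IκBα-fused green versus native red beetle luciferase in OCI-Ly3 cells, 4 h post-doxycycline with compound; red signal alone, scaled from basal (0%) to zero light (-100%), flagged nonspecific or cytotoxic effects.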
Where [1] appears, read: measured here: control luc red channel unless noted.
[2] abbreviates: measured here: IkB-luc green channel.
Setting [3] is: measured here: control luc red channel.

With `COc1ccc(CNC(=O)c2cc(-c3cccs3)nc3ccccc23)c(OC)c1`, the half-maximal activity concentration (AC50) under setting [1] was 6.31 µM [falling, full curve]. With `c1ccc2c(c1)nc(N1CCOCC1)c1nnnn12`, the AC50 under setting [1] was 1 µM [falling, full curve]. Take `Cc1ccc(-c2nc3ccccn3c2Nc2c(C)cccc2C)o1`: the AC50 under setting [1] is 20 µM [falling, partial curve]. Consider `Cc1nnc(N2CCCC(C(=O)Nc3ccccc3C(F)(F)F)C2)c2nn(-c3ccccc3)c(C)c12` (stereo unspecified), for which the concentration at half-maximal activity (AC50) under setting [1] was 12.6 µM [falling, partial curve]. For `CCOc1ccccc1-c1nc(-c2cc3ccc(C)cc3[nH]c2=O)no1`, the half-maximal activity concentration (AC50) under setting [1] was 12.6 µM [falling, partial curve].

As to `CC(C)Cn1c(=O)c2sccc2n2c(CCCC(=O)NCC(C)c3ccccc3)nnc12` (stereo unspecified), the AC50 under setting [1] was 20 µM [falling, partial curve]. As to `COc1ccc(OC)c(NC(=O)Cc2c(C(=O)O)[nH]c3ccc(Cl)cc23)c1`, the AC50 under setting [1] is 12.6 µM [falling, partial curve]. The same measure, in the same setting: for `Cc1ccc(C)c(N2CCN(C(=O)c3cc4c(=O)n(Cc5cccnc5)ccc4nc3C)CC2)c1` the value was 25.1 µM [falling, single point]; for `O=C(c1ccc(Cl)cc1)N1CCCCC1CCN1CCOCC1` (stereo unspecified), 3.98 µM [rising, partial curve]. For `Cc1cccc(C(=O)Nc2c(-c3ccc(F)cc3)nc3ccccn23)c1`, under setting [1], the AC50 was 15.8 µM [falling, partial curve]. For `CCn1c(=O)c2cc(C(=O)Nc3cc(C)c(Cl)cc3OC)sc2c2ccccc21`, the AC50 under setting [1] was 0.794 µM [falling, full curve]. Take `CCOc1ccccc1C1CC(=O)NC(C)=C1C(=O)OC1CCCCCC1` (stereo unspecified): the half-maximal activity concentration (AC50) under setting [1] was 25.1 µM [falling, single point].

Take `COc1ccc(NC(=O)C2CCCN(S(=O)(=O)c3cn(C)cn3)C2)cc1Cl` (stereo unspecified): the concentration at half-maximal activity (AC50) under setting [1] is 7.94 µM [falling, partial curve].

`Cc1cccc(Oc2nc3ccccn3c(=O)c2/C=C(\C#N)c2nc3ccccc3s2)c1C`: the AC50 under setting [1] is 25.1 µM [falling, single point]. In the case of `COc1ccc(CCNC(=O)c2ccc3c(c2)CCN3S(=O)(=O)c2ccc(Cl)cc2)cc1`, the AC50 under setting [1] was 31.6 µM [falling, single point]. For `Cc1cc(C)c(S(=O)(=O)Nc2cc(-c3cn4ccccc4n3)ccc2C)cc1C`, the AC50 under setting [1] is 25.1 µM [falling, single point]. Turning to `CCNC(=O)[C@@H]1O[C@@H](n2cnc3c(N)nc(NCCc4ccc(CCC(=O)O)cc4)nc32)[C@H](O)[C@@H]1O`, the AC50 was 0.0158 µM [rising, full curve, poor fit] under setting [2] and 0.0158 µM [rising, full curve] under setting [3]. For the compound `CC(=O)c1ccc(NC2=NS(=O)(=O)c3ccccc32)cc1`, the AC50 under setting [1] is 0.316 µM [rising, full curve, poor fit].

In the case of `O=C(CSc1nnc(Cc2cccs2)n1-c1ccccc1)NC1CCCCC1`, the AC50 under setting [1] was 15.8 µM [falling, partial curve]. On the same count and under the same terms, next, `COc1c(Cl)cc(C(=O)Nc2cccc(-c3nc4ccccc4[nH]3)c2)cc1Cl`: 5.01 µM [falling, partial curve]; `Cc1ccc(Cl)cc1N1CCN(C(=O)CN2C(=O)COc3ccc(S(=O)(=O)N4CCOCC4)cc32)CC1`: 12.6 µM [falling, partial curve]; `O=C(NCc1ccc(F)cc1)c1ccc(CSc2nc3ccncc3n2Cc2ccc(F)cc2)cc1`: 25.1 µM [falling, single point]. `CCOC(=O)c1c(Nc2cccc(O)c2)nnc(-c2ccccc2)c1-c1ccccc1`: the AC50 under setting [1] was 12.6 µM [falling, partial curve]. On the same count and under the same terms, for `C=CCn1c(SCC(=O)Nc2sc(C)c(C)c2C(=O)OCC)nnc1-c1sc(N)nc1C` the value was 20 µM [falling, partial curve]; for `CN1CCc2ccccc2Cc2[nH]c3ccccc3c2CC1`, 20 µM [falling, partial curve]; for `Cc1ccc2[nH]c(=O)c(C(c3nnnn3C3CCCC3)N(Cc3cccnc3)Cc3ccco3)cc2c1` (stereo unspecified), 25.1 µM [rising, partial curve] [measured here: IkB-luc green channel].

As for `CCOC(=O)C1=C(N)Oc2cc(O)ccc2C1c1cccnc1` (stereo unspecified), under setting [1], the AC50 is 39.8 µM [falling, single point]. On the same count and under the same terms, for `COc1ccc(OC)c(NC(=O)c2ccc(-c3nc(CSc4ccccc4)c(C)o3)cc2)c1` the value was 7.94 µM [falling, partial curve]; for `COc1ccccc1CCNC(=O)c1ccc(NC(=O)N2CC(C)Sc3ccccc32)cc1` (stereo unspecified), 12.6 µM [falling, partial curve]. The same measure, in the same setting: for `Cc1ccc(Cn2c(Cc3ccccc3)nc3ccccc32)cc1` the value was 20 µM [falling, partial curve].

Consider `O=C(c1ccc(Cl)c(Cl)c1)N(Cc1ccco1)c1ccc(O)cc1`, for which the AC50 under setting [1] was 15.8 µM [falling, partial curve]. For the compound `O=C(Nc1cccc(-c2nc3ccccc3[nH]2)c1)c1cccc(NC(=O)c2ccco2)c1`, the AC50 is, setting by setting: under setting [2], 7.94 µM [rising, single point]; under setting [3], 0.631 µM [falling, full curve]. Regarding `CCOC(=O)c1ccccc1NC(=O)CCc1c(C)nc2c(c1C)c(=O)n(C)c(=O)n2C`, the AC50 under setting [1] is 39.8 µM [falling, single point]. The same measure, in the same setting: for `O=C(NC1CC(=O)N(c2ccc(F)cc2)C1)C(c1ccccc1)c1ccccc1` (stereo unspecified) the value was 39.8 µM [falling, single point]; for `Cc1ccc(NC(=O)CSC(N)=O)cc1Cl`, 12.6 µM [falling, partial curve]; for `COc1ccc(-c2noc(CSc3nnc(-c4ccncc4)n3-c3ccc(OC)cc3)n2)cc1`, 39.8 µM [falling, single point].

In the case of `COc1ccccc1NC(=O)C1=C(C)Nc2nc(SCc3ccccc3)nn2C1c1cccs1` (stereo unspecified), the half-maximal activity concentration (AC50) under setting [1] was 3.98 µM [falling, full curve].

Regarding `O=C(NCCc1ccc(Cl)cc1)c1ccc2c(c1)N(Cc1ccccc1)C(=O)CS2`, under setting [1], the AC50 was 12.6 µM [falling, partial curve]. On the same count and under the same terms, for `COc1ccc(N(CC(=O)Nc2ccc(OC)c(Cl)c2)S(=O)(=O)c2c(C)noc2C)cc1` the value was 10 µM [falling, partial curve].

The record behind these values is PubChem BioAssay AID445 (National Center for Advancing Translational Sciences (NCATS), 2006).
